Drawing on ChEMBL document CHEMBL5252635, “The Mycobacterium tuberculosis mycothiol S-transferase is divalent metal-dependent for mycothiol binding and transfer” (2023), this text covers MIC for one molecule.

For experiment [1], the system named is Mycobacterium tuberculosis. The experiment in a line: Antibacterial activity against wild type Mycobacterium tuberculosis CDC1551 incubated for 10 days by resazurin dye based microtiter plate assay. It is filed as functional. As to conditions: CDC1551, 240 h, time 10 day. In outline: (§1)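 MIC in 7H9-ADC-Tween 80 medium. Strains (CDC1551 WT, rv0443 KO) grown to mid-log (OD600 ~0.8), diluted to OD600 0.01, exposed to serial antibiotic dilutions for 10 days at 37 °C; MIC read by resazurin blue test.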

For experiment [2], the system named is Mycobacterium tuberculosis. The experiment in a line: Antibacterial activity against Mycobacterium tuberculosis rv0443 knockout strain incubated for 10 days by resazurin dye based microtiter plate assay. It is filed as functional. The conditions noted are these: rv0443, 240 h, time 10 day. Put shortly: as §1

≈ marks a conversion by molar mass, not a printed value.

Consider `NNC(=O)c1ccncc1` [ISONIAZID], for which the MIC in experiment [1] and in experiment [2] was 0.02 µg/mL (≈ 0.146 µM) in each case.
